{"sequences": {"note": "Amino acid sequences for entries named in this document (tags omitted). A change or cut given only in a name is not applied to a line headed by its entry.", "UniProt P51450": "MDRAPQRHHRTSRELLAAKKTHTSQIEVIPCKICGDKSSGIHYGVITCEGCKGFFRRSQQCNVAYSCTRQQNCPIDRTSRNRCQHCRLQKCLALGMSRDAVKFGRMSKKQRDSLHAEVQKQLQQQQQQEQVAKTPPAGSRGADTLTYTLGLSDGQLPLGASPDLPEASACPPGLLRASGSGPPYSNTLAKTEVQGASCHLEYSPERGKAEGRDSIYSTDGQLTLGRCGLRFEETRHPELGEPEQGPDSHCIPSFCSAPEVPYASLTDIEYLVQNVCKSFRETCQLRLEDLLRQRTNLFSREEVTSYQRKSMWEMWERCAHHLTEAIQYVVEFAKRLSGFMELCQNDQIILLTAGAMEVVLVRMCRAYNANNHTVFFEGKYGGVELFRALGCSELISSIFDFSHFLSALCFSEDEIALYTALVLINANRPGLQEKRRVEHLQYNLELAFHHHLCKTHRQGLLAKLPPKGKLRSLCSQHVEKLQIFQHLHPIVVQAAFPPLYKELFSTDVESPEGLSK"}, "source": "PubChem BioAssay AID2551", "about": "(National Center for Advancing Translational Sciences (NCATS), 2010)", "note": "Out of some 310,000 compounds screened, about 17,000 (5.5%) were called active. Inconclusive means that the source gave no clear call. Such entries were picked first, then a sample of the others. Calls come from the whole dose curve; as a rule, active = well fitted inhibition curve with a large enough effect; inconclusive = small, poorly fitted or top-dose-only effect, or effect the other way; inactive = no such curve, though single readings can be large or run the other way. Potencies beside an inconclusive call are fits to weak or partial responses and may not hold up. Potency is the fitted concentration of half-maximal effect."}
{"target": "Nuclear receptor ROR-gamma (Mus musculus) (UniProt P51450)", "experiment": "qHTS for inhibitors of ROR gamma transcriptional activity; note: nearly all actives have a fitted effect of over 60% in size", "settings": "Drosophila S2 Gal4-RORgamma UAS-luciferase reporter, 20 h; series mostly up to 53.6 µM", "in_short": "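Stably transfected Drosophila Schneider cells are the test system, with ROR gamma fused to Gal4 and luciferase under UAS control; luminescence is read after 20 hr of 700 uM copper sulfate induction at ambient temperature.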"}
{"smiles": "Cc1ccc(CSc2nnc(CS(=O)Cc3ccc(Cl)cc3Cl)n2C)cc1", "note": "(stereo not drawn)", "Potency": "inconclusive: 10 µM [activator, partial curve]"}
{"smiles": "Cc1oc2cc(OC(=O)c3ccco3)ccc2c(=O)c1-c1nc2ccccc2n1C", "Potency": "inconclusive: 3.55 µM [activator, full curve]"}
{"smiles": "Cc1c(Br)c([N+](=O)[O-])nn1C(C)C(=O)Nc1nccs1", "note": "(stereo not drawn)", "Potency": "active: 20 µM"}
{"smiles": "CCOc1ccc(S(=O)(=O)N2CCN=C2c2ccccc2)c(C)c1C", "Potency": "inconclusive: 10 µM [inhibitor, partial curve]"}
{"smiles": "O=S(=O)(NCCc1csc(-c2ccc(C(F)(F)F)cc2)n1)c1ccc2c(c1)OCCO2", "Potency": "inconclusive: 14.1 µM [activator, partial curve]"}
{"smiles": "Cc1cc(C(=O)COC(=O)CC2Sc3ccccc3NC2=O)c(C)n1-c1ccccc1", "note": "(stereo not drawn)", "Potency": "inconclusive: 14.1 µM [activator, single point]"}
{"smiles": "COc1ccc(OC)c(NC(=O)CCN2CCN(Cc3ccccc3)CC2)c1", "Potency": "inactive"}
{"smiles": "[O-]/C(=C(\\C(=S)Nc1ccc(Cl)cc1)[n+]1ccccc1)c1ccc(OC(F)F)cc1", "Potency": "active: 5.01 µM"}
{"smiles": "Cn1cccc1-c1cc(C(=O)N/N=C/c2ccc(F)cc2)[nH]n1", "Potency": "inconclusive: 2 µM [activator, full curve]"}
{"smiles": "COC(=O)c1ccc(C(NC(=O)OCc2ccccc2)/C(I)=C/[C@@H](C)C(=O)NCc2ccc(C)o2)cc1", "note": "(stereo partly drawn)", "Potency": "inconclusive: 11.2 µM [activator, single point]"}
{"smiles": "COc1ccc(OC)c(/C=C/c2[nH]c(=O)[nH]c(=O)c2[N+](=O)[O-])c1", "Potency": "inactive"}
{"smiles": "COC(=O)c1sccc1NC(=O)Cn1nnc(-c2ccccc2C)n1", "Potency": "inconclusive: 3.55 µM [inhibitor, single point]"}
{"smiles": "COc1ccc(CCNC(=O)/C(C#N)=C/c2cccc(OCc3ccccc3)c2)cc1OC", "Potency": "inconclusive: 35.5 µM [inhibitor, single point]"}
{"smiles": "CCCCOc1ccc(C(C)NC(=O)CCS(=O)(=O)Cc2ccc(C)cc2)cc1", "note": "(stereo not drawn)", "Potency": "inconclusive: 35.5 µM [activator, single point]"}
{"smiles": "Cc1[nH]c2ccc(-c3n[nH]c(=S)n3Cc3ccccc3)cc2c1C", "Potency": "active: 10 µM"}
{"smiles": "CC1=C(C(=O)c2ccccc2)C(c2cn(-c3ccccc3)nc2-c2ccc(Cl)cc2)NC(=S)N1", "note": "(stereo not drawn)", "Potency": "active: 5.62 µM"}
{"smiles": "COc1ccc2nc(C)cc(NCc3cccc(C(F)(F)F)c3)c2c1", "Potency": "inactive"}
{"smiles": "COc1cc(C(=O)NNC(=S)NC(=O)c2ccc(Cl)cc2)cc(OC)c1OC", "Potency": "inconclusive: 35.5 µM [inhibitor, single point]"}
{"smiles": "O=C(CCC(=O)N(CC(=O)NC1CCCC1)Cc1ccccc1)Nc1nccs1", "Potency": "inactive"}
{"smiles": "Cc1cccc(-c2n[nH]c(=S)n2/N=C/c2ccc(C)o2)c1", "Potency": "inconclusive: 35.5 µM [inhibitor, single point]"}
{"smiles": "CCOc1ccc(NS(=O)(=O)c2ccc(C(=O)N3CCCCC3)cc2)cc1", "Potency": "inconclusive: 14.1 µM [activator, partial curve]"}
{"smiles": "C=CCn1c(SCc2cccc(C#N)c2)nnc1-c1ccccc1O", "Potency": "inconclusive: 35.5 µM [inhibitor, partial curve, poor fit]"}
{"smiles": "CC(/C=C/c1ccccc1)=N/NC(=O)c1cc([N+](=O)[O-])cc([N+](=O)[O-])c1", "Potency": "active: 0.178 µM"}
{"smiles": "CN1C(=O)NC(c2ccc(C(F)(F)F)cc2)C2=C1CC(C)(C)CC2=O", "note": "(stereo not drawn)", "Potency": "inactive"}
{"smiles": "CCOc1ccc(NC(=O)CSc2nc3c(c(=O)n2-c2ccccc2OC)SCC3)cc1", "Potency": "inconclusive: 3.98 µM [activator, single point]"}
{"smiles": "Cc1cc(C)c2nc3sc(C(=O)N4CCOCC4)c(N)c3cc2c1", "Potency": "active: 10 µM"}
{"smiles": "COc1ccc(CCNC(=O)c2cnc3scc(C)n3c2=O)cc1OC", "Potency": "inconclusive: 35.5 µM [activator, partial curve]"}
{"smiles": "CC1CCN(C(=O)c2ccc3c(c2)OCO3)CC1", "Potency": "inactive"}
{"smiles": "Cc1ccc(N=C/C(C(=O)C(F)(F)F)=C(\\O)c2cccs2)cc1", "Potency": "inconclusive: 11.2 µM [inhibitor, single point]"}
{"smiles": "CC(C)NCc1c(O)c(Br)cc2oc3c(c12)CCCC3", "Potency": "inconclusive: 17.8 µM [inhibitor, single point]"}
{"smiles": "Cc1ccc(NC(=S)NNC(=S)NC2CCCCC2)cc1", "Potency": "active: 15.8 µM"}
{"smiles": "COc1cccc(/C=C/C(=O)N2CCN(S(=O)(=O)c3ccccc3)CC2)c1OC", "Potency": "inconclusive: 35.5 µM [activator, single point]"}
{"smiles": "O=C(c1ccc(N2CCCC2)c([N+](=O)[O-])c1)N1CCN(c2ccccn2)CC1", "Potency": "inactive"}
{"smiles": "c1ccc(CNc2ccc(CNc3ncn[nH]3)cc2)cc1", "Potency": "inactive"}
{"smiles": "CCC(=O)c1ccc(OC(=O)N2CCOCC2)cc1", "Potency": "inactive"}
{"smiles": "COc1cccc(C(=O)Nc2ccncc2)c1", "Potency": "inconclusive: 22.4 µM [activator, partial curve, poor fit]"}
{"smiles": "Cc1nc2ccccc2c2oc(C(=O)NCc3ccc4c(c3)OCO4)cc12", "Potency": "inconclusive: 14.1 µM [activator, single point]"}
{"smiles": "O=C(c1ccc2c(c1)OCO2)N1CCC2(CC1)Oc1ccc(Cl)cc1C(=O)C21CC(c2ccc(Cl)cc2)=NO1", "note": "(stereo not drawn)", "Potency": "inactive"}
{"smiles": "O=C(c1ccco1)N1CCN(C(=O)C2CCCc3c2[nH]c2ccc(Cl)cc32)CC1", "note": "(stereo not drawn)", "Potency": "inconclusive: 5.01 µM [activator, single point]"}
{"smiles": "O=C(CN1C(=O)C2CC=CCC2C1=O)Nc1nc2ccccc2s1", "note": "(stereo not drawn)", "Potency": "inconclusive: 25.1 µM [inhibitor, single point]"}
{"smiles": "O=[N+]([O-])c1ccc(OCc2cnc(Cl)s2)c([N+](=O)[O-])c1", "Potency": "inconclusive: 15.8 µM [activator, single point]"}
{"smiles": "CCC(=O)N(CCc1ccccc1)Cc1cc2cc(C)ccc2[nH]c1=O", "Potency": "inconclusive: 11.2 µM [activator, partial curve]"}
{"smiles": "CC(=O)Nc1ccc2nc(-c3ccccc3)cn2c1", "Potency": "inconclusive: 12.6 µM [inhibitor, single point]"}
{"smiles": "CN1CCN(c2ncc3nc(-c4ccc(Cl)cc4)c(=O)n(Cc4ccc(F)cc4)c3n2)CC1", "Potency": "inactive"}
{"smiles": "COc1ccc(C(=O)NC(=S)N2CCNC(=O)C2)cc1Br", "Potency": "active: 15.8 µM"}
{"smiles": "O=C(NC(Cc1c[nH]c2ccccc12)C(=O)O)c1ccccc1", "note": "(stereo not drawn)", "Potency": "inconclusive: 0.708 µM [activator, full curve]"}
{"smiles": "CC(=O)[C@@H]1[C@@H](C(=O)c2ccc(C)cc2)[C@]2(C(=O)Nc3ccccc32)[C@H]2C=Cc3cc(F)ccc3N12", "Potency": "inconclusive: 11.2 µM [inhibitor, partial curve]"}
{"smiles": "CN1CCN(C(=S)C(=O)Nc2ccc(Br)cc2)CC1", "Potency": "inactive"}
{"smiles": "O=C(Nc1nc2ccccc2[nH]1)c1cccs1", "Potency": "active: 5.01 µM"}
{"smiles": "CSc1c(CC(=O)Nc2ccccc2)n(C)c2ccccc12", "Potency": "inconclusive: 11.2 µM [activator, partial curve]"}
{"smiles": "CC(=O)c1cccc(NC(=O)c2ccc3ccccc3c2)c1", "Potency": "inconclusive: 15.8 µM [inhibitor, single point]"}
{"smiles": "Cc1ncc([N+](=O)[O-])n1CCOC(=O)NC(NCc1cccnc1)C(Cl)(Cl)Cl", "note": "(stereo not drawn)", "Potency": "inconclusive: 6.31 µM [inhibitor, single point]"}
{"smiles": "COc1cc(NC(=S)NCCc2ccccc2)c(OC)cc1NC(=O)CC(C)C", "Potency": "active: 10 µM"}
{"smiles": "CCOC(=O)c1cc(-c2ccco2)nc2c1c(C)nn2CCC#N", "Potency": "inconclusive: 14.1 µM [activator, single point]"}
{"smiles": "COc1ccc(-c2nnc(SCC(=O)c3cccs3)n2-c2ccc(Cl)cc2)cc1", "Potency": "inconclusive: 12.6 µM [activator, single point]"}
{"smiles": "O=C(/C(C=Nc1cccc(C(F)(F)F)c1)=C(/O)c1ccco1)C(F)(F)F", "Potency": "inconclusive: 15.8 µM [activator, partial curve]"}
{"smiles": "COc1cc2c(cc1OC)C(C)N(C(=O)c1cccc([N+](=O)[O-])c1)CC2", "note": "(stereo not drawn)", "Potency": "inconclusive: 14.1 µM [inhibitor, partial curve]"}
{"smiles": "COc1ccc(/C=N/NC(=S)Nc2ccccc2)cc1COc1ccc(Br)cc1", "Potency": "active: 0.316 µM"}
{"smiles": "Cc1oc(-c2ccc(Cl)cc2)nc1CN1CCCC(C(=O)NCc2cccnc2)C1", "note": "(stereo not drawn)", "Potency": "inconclusive: 35.5 µM [activator, single point]"}
{"smiles": "CCCCCCn1c(CN2CCN(C(=O)c3ccco3)CC2)nc2c1c(=O)n(C)c(=O)n2C", "Potency": "inconclusive: 11.2 µM [activator, partial curve]"}
{"smiles": "COc1ccc(-n2c(COc3cccc(C)c3)nnc2SCC(=O)NCc2ccco2)cc1", "Potency": "inconclusive: 2.82 µM [inhibitor, partial curve]"}
{"smiles": "COc1ccc(OC)c(-n2c(-c3cc(-c4ccc(F)cc4)n[nH]3)n[nH]c2=S)c1", "Potency": "inconclusive: 10 µM [inhibitor, partial curve]"}
{"smiles": "O=S1(=O)C=C(Sc2nc3cc(Cl)ccc3o2)c2ccccc21", "Potency": "active: 5.62 µM"}
{"smiles": "Cc1cccc(N(CC(=O)Nc2ccc(CC#N)cc2)S(C)(=O)=O)c1", "Potency": "inconclusive: 8.91 µM [activator, partial curve]"}
{"smiles": "O=C(Nc1ccc2c(c1)OCCO2)c1ccccn1", "Potency": "active: 7.08 µM"}
{"smiles": "COc1ccc2c(N)c(C(=O)NN)[nH]c2c1", "Potency": "inconclusive: 2.82 µM [inhibitor, partial curve]"}
{"smiles": "COc1ccc(S(=O)(=O)N2CCN(C(=O)c3cc(-c4ccc(Br)cc4)n[nH]3)CC2)cc1OC", "Potency": "inconclusive: 6.31 µM [activator, single point]"}
{"smiles": "O=C(COc1ncnc2ccccc12)Nc1ccc(Cl)c([N+](=O)[O-])c1", "Potency": "inconclusive: 35.5 µM [activator, single point]"}
